Measured values reported in patent publication US20150118306A1, “COMPOSITIONS COMPRISING SULFORAPHANE OR A SULFORAPHANE PRECURSOR AND A MILK THISTLE EXTRACT OR POWDER” (Nutramax Laboratories, Inc., priority 2012, published 2015).
At least one compound was matched to its structure with a doubt left.

System: HepG2 cells
Assay: Glutathione levels in HepG2 cell lysates, o-phthalaldehyde fluorescence (Example 6)
Format: cell-based, human
Settings: alone or combined
Method: The following study was conducted to determine the effect of the combination of sulforaphane and silibinin on glutathione levels. Glutathione plays an important role in the body, as it can serve as an antioxidant, detoxifier, and immunity enhancer. Decreased levels of glutathione can cause a patient to be susceptible to oxidative stress, illness, and cancer. Therefore, an increase in glutathione levels is a beneficial effect.
In the study, the human liver cancer cell line, HepG2 cells were treated with DMSO (vehicle control), sulforaphane (SFN), silibinin (Silib), or the combination of sulforaphane and silibinin, for 24 hours. Cell lysates were collected and glutathione levels were measured using o-phthalaldehyde (OPT) as a fluorescent reagent. FIG. 5 and FIG. 6 show the results of the study.
In Part 1 of the study, the effect of 0.5 μM SFN was compared to various concentrations of silibinin and to the combination of 0.5 μM SFN and silibinin at various concentrations. […] An increase in glutathione levels is a beneficial effect. The results are depicted in FIG. 5.
In Part 2 of the study, the effect of 2 μM SFN was compared to various concentrations of silibinin and to the combination of 2 μM SFN and silibinin at various concentrations. […] An increase in glutathione levels is a beneficial effect to detoxify cells. The results are depicted in FIG. 6.

## COc1cc(C2Oc3cc([C@H]4Oc5cc(O)cc(O)c5C(=O)[C@@H]4O)ccc3OC2CO)ccc1O (some centres unmarked) [Silibinin, silibinin]
Part 1, 24 hours: 0.5 μM SFN, 100, 200, 300 μM Silib, FIG. 5
  Glutathione levels compared to DMSO (vehicle) control: decreased slightly
Part 2, 24 hours: 2 μM SFN, 100, 300 μM Silib, FIG. 6
  Glutathione levels compared to the control: decreased slightly
